Assay [1] addresses T1, FLAG-tagged EEN expressed in Col-0 35S:EEN plants (A. thaliana) (UniProt Q8RWS0).
T1 sequence: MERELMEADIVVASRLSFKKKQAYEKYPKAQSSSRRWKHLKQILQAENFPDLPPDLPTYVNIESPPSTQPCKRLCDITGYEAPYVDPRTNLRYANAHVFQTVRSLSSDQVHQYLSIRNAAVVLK
Kind of assay: affinity purification with mass spectrometry; nuclear extracts of Col-0 35S:EEN-FLAG flowers on Anti-FLAG M2 Magnetic Beads for 2 hr, washed with Sonic buffer; two independent IPs; non-transgenic Col-0 as control.

For assay [2], the target named is T1, FLAG-tagged EEN expressed in Col-0 35S:EEN plants (A. thaliana). The assay is described as above. The source holds these as a separate data set.

Read-outs that look alike come from different tables or passages of the source. Results are given in words; binding and its absence hold for the method and conditions named. Binding seen in cells or lysates may run through a third protein. These calls come from enrichment with a bait or labelling near it, and not all partners need be listed. Tags and fused reporters may be left off the sequences shown.

Consider helicase RVB2, endogenous, for which the binding result in assay [1] was “binds”.

B1: ARP5 (ACTIN-RELATED PROTEIN5), endogenous (protein, UniProt Q940Z2 1-724)
chain: MAFVSRIRRQSDYNTYPSSIPIVIDNGASYFRIGWAGETEPRVVFRNIVQRPRHKATGETVTIVGDLDPSMMKYFDCTRSGPRSPFDSNVVYQFEIMEYILDYAFDRLGANGSGIDHPILITECACNPVQSRSKMAELLFETYGVPAVAFGVDAAFSYKYNQLHGICKKDGIVLCPGFTTTHSIPFVDGEPIYKGSSRTNIGGYHVTDYLKQLLSLKYPFHSSRFTWEKAEDLKLEHCYIAPDYASEIRLFQEGRKEAEEKTSYWQLPWIPPPTEVPPSEEEIARKAAIREKQGQRLREMAEAKRVSKINDMENQLISLRFLLKQVDQVEEDDIPTFLSDTGYASRQELESTITKVTQSLRKARGEPKNEPAEYEENPDSLNNEKYPLMNVPDDILTPEQLKDKKRQMFLKTTAEGRLRARQKRNEEELEKEKRNQLEEERRRENPESYLEELQAQYKEVLERVEQKKRLKTNGSSNGNNKSGGIGRGERLSAAQRERMRLLTTAAFDRGKGEDTFGSRDEDWQLYKLMSKDNDDDDEQPDSDEAELARLSSRLQEIDPTFVQKVEGELSQTSGEVPRVRPLTEEDYKIVIGIERFRCPEILFHPNLIGIDQVGLDEMAGTSIRRLPHDEKELEERLTSSILMTGGCSLLPGMNERLECGIRMIRPCGSPINVVRAMDPVLDAWRGASAFAANLNFLGNAFTKMDYDEKGEDWLRNYQIRYNYL
B1: the binding result in assay [2] was “binds”.

Source of the values: PMC6739875.
